Results: patent US9642922B2, “Caspase-triggered nano-aggregation probes and methods of use” (The Board of Trustees of the Leland Stanford Junior …, priority 2013, dated 2017)
At least one compound was matched to its structure with a doubt left. Some of these results come from one statement about several compounds together.

Experiments:
[1] = Integrity of fluorescent probes in mouse serum; type: in vitro ADME
caspase-3 = target: T1, caspase-3 (Homo sapiens, UniProt P42574); assay: HPLC assay of caspase-3-triggered macrocyclization of C-SNAF; type: biochemical; set-up: purchased Sigma; host or cells: E. coli; conditions: probe 25 μM, recombinant human caspase-3 4.9×10^−3 μml
T1 sequence (P42574 29-175 limits assumed): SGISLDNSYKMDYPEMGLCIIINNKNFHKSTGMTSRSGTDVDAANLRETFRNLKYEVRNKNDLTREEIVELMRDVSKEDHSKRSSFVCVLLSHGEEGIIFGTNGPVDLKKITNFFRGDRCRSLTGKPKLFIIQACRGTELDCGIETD
T1 sequence (P42574 176-277 limits assumed): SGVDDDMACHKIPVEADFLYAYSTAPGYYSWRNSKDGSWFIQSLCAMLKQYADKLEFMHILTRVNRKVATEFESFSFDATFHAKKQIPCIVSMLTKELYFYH
Description: The progression of caspase-3-triggered macrocyclization of C-SNAF to form C-SNAF-cycl in solution was monitored using high-performance liquid chromatography (HPLC) following incubation of the probe (25 μM) with recombinant human caspase-3 (4.9×10^−[…]).
Caspase (human, recombinant from E. coli) assays were performed for caspase-3 (4.9×10^−3 U; 7.35×10^−4 mg, Sigma), −7 (18.3 U; 7.35×10^−4 mg, Calbiochem), and −9 (0.3 U; 7.35×10^−4 mg, Calbiochem). All caspase assays were conducted in caspase buffer with 50 mM HEPES, 100 mM NaCl, 1 mM EDTA, 10 mM TCEP, 10% glycerol, and 0.1% CHAPS at pH 7.4. Cathepsin B (human liver; 0.27 U; 7.35×10^−4 mg, Calbiochem) and Legumain (human, recombinant from mouse myeloma cell line; >250 pmol/min/μg; 7.35×10^−4 mg, R&D Systems) were conducted in reaction buffer with 50 mM sodium acetate, 50 mM NaCl, 0.5 mM EDTA and 10 mM TCEP at pH 5.5. C-SNAF was diluted in the respective enzyme reaction buffer (25 μM, 1 mL) and remained at room temperature for 10 min, to which was then added the respective enzymes. Reactions were performed at 37° C., and monitored by HPLC hourly. The percentage conversion of the reaction was calculated based on the percentage of peak area of C-SNAF-cycl in the HPLC trace at 675 nm UV detection, which indicated the efficacy of enzyme cleavage of C-SNAF.

SMILES: CCSSC[C@@H](NC(=O)[C@H](CC(=O)O)NC(=O)[C@@H](NC(=O)[C@H](CCC(=O)O)NC(=O)[C@H](CC(=O)O)NC(C)=O)C(C)C)C(=O)N[C@@H](CCCCNC(=O)CCCCCN1C(=CC=CC=CC2=[N+](CC)c3ccc4c(S(=O)(=O)[O-])cc(S(=O)(=O)O)cc4c3C2(C)C)C(C)(C)c2c1ccc1c(S(=O)(=O)O)cc(S(=O)(=O)O)cc21)C(=O)Nc1ccc2nc(C3=N[C@@H](C(=O)NCCCOc4ccc5nc(C#N)ccc5c4)CS3)sc2c1 [C-SNAF]
- half-life in mouse serum [1]: more than 6 h
- half-life (t1/2) of conversion to C-SNAF-cycl (caspase-3): less than 1 h
